According to the supplement of paper PMC10849652:
The list shows a part of the results.

Amino acid sequences for entries named in this document (tags omitted). A change or cut given only in a name is not applied to a line headed by its entry.
UniProt Q96HV5: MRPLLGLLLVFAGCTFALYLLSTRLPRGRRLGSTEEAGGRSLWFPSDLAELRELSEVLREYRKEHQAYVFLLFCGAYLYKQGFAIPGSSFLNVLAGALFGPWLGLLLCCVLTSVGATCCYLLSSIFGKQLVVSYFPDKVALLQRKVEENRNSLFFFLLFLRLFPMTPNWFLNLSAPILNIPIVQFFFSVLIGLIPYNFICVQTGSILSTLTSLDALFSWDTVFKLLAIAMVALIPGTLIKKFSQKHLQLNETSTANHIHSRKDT
UniProt Q53FA7: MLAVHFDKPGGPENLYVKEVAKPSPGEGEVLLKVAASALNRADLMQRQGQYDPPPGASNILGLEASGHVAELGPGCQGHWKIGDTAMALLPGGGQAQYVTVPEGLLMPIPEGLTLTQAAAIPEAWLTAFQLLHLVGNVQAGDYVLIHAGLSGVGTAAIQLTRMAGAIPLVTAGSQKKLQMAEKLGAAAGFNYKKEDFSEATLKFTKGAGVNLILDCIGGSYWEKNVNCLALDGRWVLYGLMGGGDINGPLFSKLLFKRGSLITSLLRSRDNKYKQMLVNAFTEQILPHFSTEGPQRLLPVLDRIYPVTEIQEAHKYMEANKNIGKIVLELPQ
UniProt P28289: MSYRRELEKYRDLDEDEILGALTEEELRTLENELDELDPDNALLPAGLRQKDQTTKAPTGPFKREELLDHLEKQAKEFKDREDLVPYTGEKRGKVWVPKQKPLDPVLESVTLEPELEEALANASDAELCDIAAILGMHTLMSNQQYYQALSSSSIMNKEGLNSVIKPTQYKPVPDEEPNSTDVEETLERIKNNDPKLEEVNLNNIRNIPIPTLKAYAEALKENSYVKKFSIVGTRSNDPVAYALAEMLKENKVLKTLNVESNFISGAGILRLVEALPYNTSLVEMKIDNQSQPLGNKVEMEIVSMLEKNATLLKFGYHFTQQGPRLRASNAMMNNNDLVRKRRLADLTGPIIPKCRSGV
UniProt O95985: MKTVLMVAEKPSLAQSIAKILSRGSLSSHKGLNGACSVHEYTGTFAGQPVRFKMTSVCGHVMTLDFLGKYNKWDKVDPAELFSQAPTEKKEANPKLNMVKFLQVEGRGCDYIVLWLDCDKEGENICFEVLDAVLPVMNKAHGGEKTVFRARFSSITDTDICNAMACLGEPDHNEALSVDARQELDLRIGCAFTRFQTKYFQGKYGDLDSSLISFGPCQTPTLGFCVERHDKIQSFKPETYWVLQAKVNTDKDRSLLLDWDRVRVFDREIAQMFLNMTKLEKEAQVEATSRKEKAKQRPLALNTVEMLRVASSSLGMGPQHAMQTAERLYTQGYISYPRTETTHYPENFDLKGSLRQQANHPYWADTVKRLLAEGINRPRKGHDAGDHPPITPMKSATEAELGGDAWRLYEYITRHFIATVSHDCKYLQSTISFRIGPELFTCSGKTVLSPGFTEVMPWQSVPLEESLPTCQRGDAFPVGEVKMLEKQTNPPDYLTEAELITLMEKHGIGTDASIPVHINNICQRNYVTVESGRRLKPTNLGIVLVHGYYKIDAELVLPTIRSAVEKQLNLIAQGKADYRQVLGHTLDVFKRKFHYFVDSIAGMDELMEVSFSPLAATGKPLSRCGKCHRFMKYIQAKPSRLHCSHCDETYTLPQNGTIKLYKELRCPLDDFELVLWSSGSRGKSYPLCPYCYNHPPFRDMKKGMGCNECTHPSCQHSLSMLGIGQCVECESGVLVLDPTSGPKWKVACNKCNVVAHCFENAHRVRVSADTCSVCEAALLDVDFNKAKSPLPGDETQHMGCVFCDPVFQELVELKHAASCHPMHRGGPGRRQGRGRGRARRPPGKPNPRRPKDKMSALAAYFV
UniProt Q96K49: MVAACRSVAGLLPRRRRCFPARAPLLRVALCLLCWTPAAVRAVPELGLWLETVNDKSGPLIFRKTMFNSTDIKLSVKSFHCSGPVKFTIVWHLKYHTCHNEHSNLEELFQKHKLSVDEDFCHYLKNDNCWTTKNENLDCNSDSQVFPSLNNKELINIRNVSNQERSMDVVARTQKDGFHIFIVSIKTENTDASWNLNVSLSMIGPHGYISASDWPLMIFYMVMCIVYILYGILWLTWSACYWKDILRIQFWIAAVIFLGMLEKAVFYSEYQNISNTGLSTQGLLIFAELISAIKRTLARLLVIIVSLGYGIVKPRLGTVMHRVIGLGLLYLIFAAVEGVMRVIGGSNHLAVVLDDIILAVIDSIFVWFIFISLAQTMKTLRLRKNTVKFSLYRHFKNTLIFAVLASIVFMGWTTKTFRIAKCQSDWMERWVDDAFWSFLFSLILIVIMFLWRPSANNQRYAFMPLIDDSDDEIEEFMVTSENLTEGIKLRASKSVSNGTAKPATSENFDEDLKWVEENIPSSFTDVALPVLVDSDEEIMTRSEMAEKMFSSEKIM
UniProt P60174, whole entry, looked up: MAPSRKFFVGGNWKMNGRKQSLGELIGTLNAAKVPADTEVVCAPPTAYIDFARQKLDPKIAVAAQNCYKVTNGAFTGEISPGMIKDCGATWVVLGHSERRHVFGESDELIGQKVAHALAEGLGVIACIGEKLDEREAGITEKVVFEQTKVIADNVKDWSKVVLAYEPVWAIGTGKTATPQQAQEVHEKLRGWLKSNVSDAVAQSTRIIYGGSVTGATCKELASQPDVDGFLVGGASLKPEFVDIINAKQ
UniProt P82094: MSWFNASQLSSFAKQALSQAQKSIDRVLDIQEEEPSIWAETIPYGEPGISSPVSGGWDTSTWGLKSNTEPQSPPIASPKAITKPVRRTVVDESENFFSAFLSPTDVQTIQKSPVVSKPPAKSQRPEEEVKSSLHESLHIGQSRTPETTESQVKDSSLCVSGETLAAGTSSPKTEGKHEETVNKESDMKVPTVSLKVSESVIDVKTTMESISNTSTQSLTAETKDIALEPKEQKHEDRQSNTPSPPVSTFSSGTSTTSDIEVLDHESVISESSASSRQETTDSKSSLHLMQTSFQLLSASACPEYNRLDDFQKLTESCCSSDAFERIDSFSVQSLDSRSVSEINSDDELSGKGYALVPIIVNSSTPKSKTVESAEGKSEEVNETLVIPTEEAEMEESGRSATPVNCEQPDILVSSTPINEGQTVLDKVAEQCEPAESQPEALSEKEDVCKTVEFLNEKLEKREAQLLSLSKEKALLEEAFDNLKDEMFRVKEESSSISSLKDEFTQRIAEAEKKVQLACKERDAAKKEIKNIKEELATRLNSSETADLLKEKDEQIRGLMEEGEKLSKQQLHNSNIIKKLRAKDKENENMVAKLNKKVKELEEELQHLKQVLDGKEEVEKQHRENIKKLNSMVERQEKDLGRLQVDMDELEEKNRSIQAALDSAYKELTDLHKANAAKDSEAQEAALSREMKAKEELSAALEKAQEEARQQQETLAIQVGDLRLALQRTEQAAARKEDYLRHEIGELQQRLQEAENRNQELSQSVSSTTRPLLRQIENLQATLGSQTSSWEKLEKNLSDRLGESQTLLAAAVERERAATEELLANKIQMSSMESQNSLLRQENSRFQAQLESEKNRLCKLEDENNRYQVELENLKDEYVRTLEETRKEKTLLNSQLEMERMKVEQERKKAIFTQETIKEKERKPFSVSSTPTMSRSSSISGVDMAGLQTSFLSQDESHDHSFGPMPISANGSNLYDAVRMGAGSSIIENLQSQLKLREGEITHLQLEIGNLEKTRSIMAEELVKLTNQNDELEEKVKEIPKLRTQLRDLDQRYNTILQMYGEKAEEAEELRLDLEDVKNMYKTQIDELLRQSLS
UniProt Q9BTV4: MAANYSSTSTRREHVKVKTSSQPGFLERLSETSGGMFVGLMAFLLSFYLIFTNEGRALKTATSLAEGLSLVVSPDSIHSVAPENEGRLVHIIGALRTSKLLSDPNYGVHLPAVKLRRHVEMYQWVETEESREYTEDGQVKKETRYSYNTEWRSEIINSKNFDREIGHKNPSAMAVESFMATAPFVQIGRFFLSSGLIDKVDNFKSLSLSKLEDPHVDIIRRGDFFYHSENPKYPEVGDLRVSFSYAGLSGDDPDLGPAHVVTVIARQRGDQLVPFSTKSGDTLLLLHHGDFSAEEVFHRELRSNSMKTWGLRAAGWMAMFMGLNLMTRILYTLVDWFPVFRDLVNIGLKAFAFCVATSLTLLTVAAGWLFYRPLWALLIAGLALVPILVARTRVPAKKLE

Experiments:
Experiment in all cases: log2 fold change, soluble protein after heating vs DMSO (PISA); higher = thermal stabilisation; K562 lysate, 10 uM; active = over 0.2 and 3.5 SD of the protein, either way, in both replicates (recomputed)
[1] = compound: CCCS(=O)(=O)Nc1ccc(F)c(C(=O)c2c[nH]c3ncc(-c4ccc(Cl)cc4)cc23)c1F [vemurafenib]
Outline: (§1)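 To prepare the extract, K562 pellets were dounce-homogenised in PBS pH 7.4 with 1 mM MgCl2, giving crude material at 1 mg/mL protein. This was treated with 10 μM compound for 30 min, then heated in aliquots for 3 min over 48°C-58°C before pooling and addition of NP-40 to 0.5% at 4°C. Centrifugation at 21,000xg for 90 min left soluble protein in the supernatant, which TMTpro 16plex LC-MS/MS quantified with equalised channel sums. Results are log-two fold changes in thermal stability compared with solvent controls, from duplicates.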

[2] = compound: CCCS(=O)(=O)Nc1ccc(F)c(C(=O)c2c[nH]c3ncc(Cl)cc23)c1F
Outline: as §1

[3] = compound: CCN(CCCOc1ccc2c(Nc3cc(CC(=O)Nc4cccc(F)c4)[nH]n3)ncnc2c1)CCOP(=O)(O)O [barasertib]
Outline: as §1

[4] = compound: CC[C@@H]1C(=O)N(C)c2cnc(Nc3ccc(C(=O)NC4CCN(C)CC4)cc3OC)nc2N1C1CCCC1
Outline: as §1

[5] = compound: CC[C@@H]1C(=O)N(C)c2cnc(Nc3ccc(C(=O)N[C@H]4CC[C@H](N5CCN(CC6CC6)CC5)CC4)cc3OC)nc2N1C(C)C [volasertib]
Outline: as §1

[6] = compound: CCn1c(C(=O)N(C2CC2)C2CC2)cc2c3c(ncn3C)c(Nc3cc(C)n(C)n3)nc21
Outline: as §1

[7] = compound: CCn1cc(-c2ccnc3[nH]c(-c4cccc(CN(C)C)c4)cc23)c(-c2ccc(NC(=O)N(C)C)cc2)n1
Outline: as §1

[8] = compound: CN1CCC(CNc2ccc3ncc(-c4cccc(OC(F)(F)F)c4)n3n2)CC1
Outline: as §1

[9] = compound: CN1CCN(CCOc2cc(OC3CCOCC3)c3c(Nc4c(Cl)ccc5c4OCO5)ncnc3c2)CC1 [saracatinib]
Outline: as §1

[10] = compound: CN1CCN(c2nc(C3=C(c4c[nH]c5ccccc45)C(=O)NC3=O)c3ccccc3n2)CC1 [sotrastaurin]
Outline: as §1

[11] = compound: CN1CC[C@H](c2c(O)cc(O)c3c(=O)cc(-c4ccccc4Cl)oc23)[C@H](O)C1 [alvocidib]
Outline: as §1

[12] = compound: CN1CCc2c(c3ccccc3n2Cc2ccc(C(=O)NO)cc2)C1 [Tubastatin A]
Outline: as §1

[13] = compound: CNC(=O)C1=CC=CC=C1NC2=NC(=NC=C2Cl)NC3=C(C=C(C=C3)N4CCOCC4)OC
Outline: as §1

[14] = compound: CNC(=O)c1ccc(Nc2ncc(C(F)(F)F)c(NCc3nccnc3N(C)S(C)(=O)=O)n2)cc1 [defactinib]
Outline: as §1

[15] = compound: CNc1nc(-c2ccc3c(N)n[nH]c3c2)cc(N2C[C@@H](C(=O)NC3CCCCC3)CC[C@H]2C)n1
Outline: as §1

[16] = compound: COC(=O)N[C@@H](C)CNc1nccc(-c2cn(C(C)C)nc2-c2cc(Cl)cc(NS(C)(=O)=O)c2F)n1 [encorafenib]
Outline: as §1

[17] = compound: COC(=O)[C@H](CCSC)NC(=O)C1=C(C=C(C=C1)NC[C@H](CS)N)C2=CC=CC=C2
Outline: as §1

[18] = compound: COc1cc(Nc2ncc3c(n2)-c2ccc(Cl)cc2C(c2c(F)cccc2OC)=NC3)ccc1C(=O)O [alisertib]
Outline: as §1

[19] = compound: COc1cc2nc(-c3cc(F)ccc3O)nc(N[C@@H]3CNC[C@H]3C(C)(C)O)c2cc1OC
Outline: as §1

[20] = compound: COc1cc2ncnc(Nc3ccc(F)c(Cl)c3)c2cc1OCCCN1CCOCC1 [gefitinib]
Outline: as §1

Measured: log2 fold change

TMEM41A (UniProt Q96HV5)
inactive: [1] -0.008 | [2] 0.017 | [3] -0.019 | [4] -0.052 | [5] 0.026 | [6] -0.023 | [7] -0.166 | [8] 0.161 | [9] -0.042 | [10] 0.003 | [11] -0.002 | [12] -0.01 | [13] -0.037 | [14] 0.035 | [15] -0.031 | [16] 0.021 | [17] -0.025 | [18] 0.036 | [19] 0.019 | [20] 0.033

TP53I3 (UniProt Q53FA7)
inactive: [1] -0.025 | [2] -0.031 | [3] -0.018 | [4] -0.031 | [5] 0.015 | [6] 0.023 | [7] -0.073 | [8] 0.042 | [9] 0.019 | [10] -0.02 | [11] 0.01 | [12] -0.008 | [13] -0.014 | [14] 0.024 | [15] 0.005 | [16] 0.031 | [17] -0.031 | [18] -0.054 | [19] 0.017 | [20] 0.019

TMOD1 (UniProt P28289)
inactive: [1] -0.015 | [2] -0.02 | [3] 0.027 | [4] -0.027 | [5] -0.031 | [6] -0.024 | [7] 0.041 | [8] -0.031 | [9] -0.001 | [10] -0.017 | [11] 0.017 | [12] -0.081 | [13] 0.042 | [14] 0.046 | [15] -0.009 | [16] -0.004 | [17] -0.002 | [18] 0.014 | [19] 0.016 | [20] -0.008

TOP3B (UniProt O95985)
inactive: [1] 0.021 | [2] 0.029 | [3] 0.01 | [4] 0.021 | [5] -0.032 | [6] 0.025 | [7] -0.051 | [8] 0.028 | [9] 0.014 | [10] -0.032 | [11] -0.005 | [12] -0.055 | [13] 0.014 | [14] 0.008 | [15] 0.041 | [16] 0.032 | [17] -0.181 | [18] -0.023 | [19] 0.018 | [20] -0.019

TMEM87B (UniProt Q96K49)
inactive: [1] -0.004 | [2] 0.047 | [3] 0.091 | [4] 0.018 | [5] 0.005 | [6] -0.006 | [7] 0.074 | [8] -0.032 | [9] -0.166 | [10] 0.026 | [11] 0.035 | [12] 0.044 | [13] -0.035 | [14] -0.032 | [15] -0.045 | [16] -0.055 | [17] 0.017 | [18] 0.004 | [19] 0.031 | [20] 0.018

TPI1 (UniProt P60174)
inactive: [1] 0.011 | [2] -0.002 | [3] -0.008 | [4] 0 | [5] 0.031 | [6] -0.037 | [7] -0.082 | [8] 0.067 | [9] 0.025 | [10] -0.039 | [11] -0.048 | [12] 0.079 | [13] 0.016 | [14] 0.023 | [15] 0.074 | [16] -0.029 | [17] -0.049 | [18] 0.029 | [19] 0.006 | [20] -0.004

TMF1 isoform 2 (UniProt P82094)
inactive: [1] 0.01 | [2] 0.023 | [3] 0.01 | [4] 0.076 | [5] -0.01 | [6] -0.015 | [7] -0.028 | [8] 0.019 | [9] 0.01 | [10] 0.001 | [11] -0.022 | [12] 0.032 | [13] 0.021 | [14] 0.033 | [15] 0.019 | [16] 0.079 | [17] -0.062 | [18] 0.024 | [19] 0.026 | [20] 0.022

TMEM43 (UniProt Q9BTV4)
inactive: [1] 0.026 | [2] 0.039 | [3] 0.024 | [4] 0.018 | [5] 0.008 | [6] -0.046 | [7] -0.061 | [8] 0.078 | [9] 0.042 | [10] 0.021 | [11] -0.013 | [12] 0.016 | [13] -0.002 | [14] -0.003 | [15] -0.034 | [16] 0.034 | [17] -0.009 | [18] -0.007 | [19] -0.031 | [20] 0.003
